Results reported in PubChem BioAssay AID651702 (NMMLSC, 2012).
Hit rate of the full screen: of about 360,000 compounds, about 2,400 (0.67%) were called active. Inconclusive means that the source gave no clear call. Such entries were picked first, then a sample of the others.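 The calls were made as follows: active = inhibition above about 55% (limit read from the data); inconclusive = no clear call, values can overlap the other calls; inactive = the rest.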

test: LAMP-1 surface exposure blockers, TALL-104 cells – cell-based, flow cytometry, MLPCN library, primary screen (AID 651702); conditions: TALL-104 LAMP-1 surface exposure, cells stimulated with thapsigargin and PMA; at 10 µM, stronger effect = higher value

inhibition, inactive:
CC(=O)c1nnn(-c2ccccc2C#N)c1C -3.9%
O=C(CSc1nc(CCC2CCCC2)nc2ccccc12)NCc1ccc2c(c1)OCO2 -0.7%
CCOC(=O)C1C(=O)NC(N2CCN(Cc3ccccc3)CC2)=NC1c1ccco1 (configuration not stated) -1.4%
CCS(=O)c1scc(-c2ccc(Cl)cc2)c1C#N (configuration not stated) 3.4%
Nc1c(Cl)cc(NC(=O)c2ccccc2C(=O)O)cc1Br 10.1%
O=C(NCc1ccc2c(c1)OCO2)C1CCCN(S(=O)(=O)c2cccc3cccnc23)C1 (configuration not stated) 5%
CCC(C(=O)Nc1ccccc1OC)n1c(C(=O)OC)cc2ccsc21 (configuration not stated) -1.5%
Cc1cc(C)n(-c2ccc(C(=O)Nc3cccc(S(=O)(=O)N(C)C)c3)cc2)n1 -2%
C[C@@H]1CN([C@H](C)CO)C(=O)Cc2cc(NC(=O)Nc3ccccc3)ccc2O[C@@H]1CN(C)C(=O)Nc1ccc2c(c1)OCO2 -4.5%
Cc1ccc(S(=O)(=O)N2[C@@H](c3ccc(C(C)C)cc3)C(C(=O)O)=C[C@H]2C(C)(C)C)cc1 -1.7%
CC1CN(C(=O)CCC(=O)NCCc2ccccc2)c2ccccc2O1 (configuration not stated) -2.7%
COc1ccc(N2C(=O)CSC2c2ccccc2)cc1 (configuration not stated) -1.9%
COCCN(C(=O)CSc1nnc(-c2ccco2)n1C)c1c(N)n(CC(C)C)c(=O)[nH]c1=O 0.4%
COc1ccc(N(CC(=O)N2CCc3ccccc3C2)S(=O)(=O)c2c(C)nn(C)c2C)cc1 10.3%
O=C1CCCC2=C1C(c1ccco1)Nc1ccc3ccccc3c12 (configuration not stated) -1.6%

inhibition, inconclusive:
Cc1ccc(CC(=O)Nc2ccc(S(=O)(=O)N3CCOCC3)cc2)cc1
c1ccc(CSc2ccc(-c3ccco3)nn2)cc1
CCCCCn1cnc2sc(CC)cc2c1=O
COc1ccccc1CC1CC(=O)N(c2cccc(Cl)c2C)C1=O (configuration not stated)
O=S(=O)(c1ccc(Cl)cc1)n1c(Cc2ccccc2)nc2ccccc21
COc1ccc(N(C(=O)Cn2nnc3ccccc32)C(C(=O)NCc2ccco2)c2ccc(C)o2)cc1 (configuration not stated)
COc1ccccc1CN1CC(C(=O)NCCN2CCNC2=O)CCC1=O (configuration not stated)
O=C(CCc1ccc(S(=O)(=O)NCc2ccccc2)cc1)NCc1ccco1
Cn1c(COc2ccc(Cl)cc2)nnc1SCC(=O)Nc1ccc2c(c1)CCC2
Cc1ccsc1-c1cc2nc(NCCOc3ccccc3Cl)n(C)c(=O)c2s1
O=C(Nc1cccc(/C=C/c2nc3ccccc3c(=O)[nH]2)c1)c1ccccc1Cl
NC(=O)C1(N2CCCCC2)CCN(C(=S)Nc2ccccc2)CC1
CCN1CNC(=S)N(Cc2ccccc2)C1
COc1cc(C=O)ccc1OCCOCCOc1ccc(Cl)cc1
CS(=O)(=O)Nc1ccc(C2=NN(C(=O)c3ccco3)C(c3cccc(F)c3)C2)cc1 (configuration not stated)
CCN(CC)c1ccc(C(=O)N/N=C(\C)c2ccc(OC)c(OC)c2)cc1
CC(C)Nc1nc(Nc2ccc(C#N)cc2)c2sccc2n1
COc1ccc(C(=O)OCCNC(=O)c2ccncc2)cc1OC
Cc1csc(NC(=O)CSc2ccc3nnc(CCNS(=O)(=O)c4ccccc4)n3n2)n1
CN(C)C(CNC(=O)c1ccc(C(F)(F)F)cc1)c1ccco1 (configuration not stated)
CN(C)c1ccc(CN(C)C2CCCCC2)cc1
Cc1nn(C)c(Cl)c1CN1CCCC(C(=O)Nc2cccc(-n3cccn3)c2)C1 (configuration not stated)
NC(=O)CCC(NC(=S)Nc1ccccc1)C(=O)O (configuration not stated)
Cc1ncc([N+](=O)[O-])n1CC(=O)Nc1ccc(F)cc1F
Cc1csc(NC(=O)c2nn(C)c(C)c2[N+](=O)[O-])n1
Cc1ccc(CN(CC(=O)NC2CCCC2)C(=O)c2csnn2)cc1
O=C(CNC(=O)c1ccc2c(c1)OCCO2)N/N=C/c1ccc([N+](=O)[O-])cc1
Cc1ccc(CN2C(=O)CCC2C(=O)NCc2ccccc2Cl)cc1 (configuration not stated)
COc1ccc(CN2C(=O)N(c3ccccc3)C(=O)C2CC(=O)Nc2ccccc2)cc1OC (configuration not stated)
COc1cccc(NC(=O)C2CCCN2C(=O)NC2CCCCC2)c1 (configuration not stated)
COc1cccc(/C=C2\CCCCC2=O)c1
Cc1ccc(CC(=O)NCCS(=O)c2ccc(Cl)cc2)cc1 (configuration not stated)
COc1ccc(-c2cc3cc(OC)c(OC)cc3c(C)n2)cc1
Cn1c(CC(=O)Nc2ccccc2F)nnc1SCC(=O)Nc1nccs1
CCCNC(=O)Nc1cc(OC)c(OC)cc1Cc1nccc2cc(OC)c(OC)cc12
CC1CCC(NS(=O)(=O)c2cccc3nsnc23)CC1 (configuration not stated)

For convenience, some entries already given.
inhibition, inconclusive:
NC(=O)C1(N2CCCCC2)CCN(C(=S)Nc2ccccc2)CC1
CCN1CNC(=S)N(Cc2ccccc2)C1
COc1cc(C=O)ccc1OCCOCCOc1ccc(Cl)cc1

Following part:

inhibition, active:
CN(C)CCCN1C(=O)c2cccc3c([N+](=O)[O-])ccc(c23)C1=O 57%
CCOc1cc(/C=C2/C(=O)ON=C2C)ccc1OCc1ccccc1F 77.9%
CCOC(=O)c1ccc(NC(=O)c2ccc(C)c(S(=O)(=O)N3CCOCC3)c2)cc1 76.4%
COc1ccc(CCNC(=O)C2CC3Cn4c(nc5cc(C)c(C)cc54)C3N2C)cc1 (configuration not stated) 60.3%
Clc1ccc(CSc2nncn2-c2ccc3c(c2)OCCO3)cc1 72.2%
CC(=NNc1nc2ccccc2o1)c1cc2ccccc2cn1 101%
CCOc1ccc(S(=O)(=O)Nc2cccc(C(=O)N3CCN(c4ccccn4)CC3)c2)cc1 55.5%
CC1=C(c2ccccc2)CCC1=O 80.5%
CCOc1ccc(N(CC(=O)NCCSc2ccccn2)S(=O)(=O)c2ccc(Cl)cc2)cc1 56.9%
O=C(CCN1CCN(C(=O)c2ccccc2)CC1)c1ccc(Br)cc1 81.6%
COc1ccc(N=C2S/C(=C\c3ccc(Cl)c([N+](=O)[O-])c3)C(=O)N2CCN(C)C)cc1 72.8%
